The list shows a part of the results. Further columns of the screen follow, without active or inactive calls. The list favours compounds with an active or inconclusive main result. Potencies come from curve fits of mixed quality, noted in brackets.
Assay: qHTS Assay for Lipid Storage Modulators in Drosophila S3 Cells;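 for cell number change: cells counted by Cell Tracker Red CMTPX staining in the red channel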
Details: BODIPY lipid droplet fluorescence, 18-24 h; for cell number change: measured here: cell count max response, cells fed with added oleic acid
How it was run: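 Drosophila S3 cells loaded with oleic acid (400 uM, as added) and compounds at several concentrations; lipid droplets imaged by 488-nm laser-scanning cytometry, 500–530 nm intensity and object ratio to cell channel. Percent activity normalized to 20 uM Triacsin C.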

[1] = measured here: lipid fluorescence (Fed channel) AC50, cells fed with added oleic acid
[2] = measured here: cell number channel AC50, cells fed with added oleic acid

| SMILES | cell number change [%] | AC50 [1] | AC50 [2] |
| --- | --- | --- | --- |
| CCOc1cccc2sc(Cl)nc12 | 103 | – | – |
| Cn1ccsc1=NC(=O)c1ccccc1OC(F)F | 13 | – | – |
| CN(CCO)S(=O)(=O)c1ccc2c(c1)C(=O)c1cc(S(=O)(=O)N(C)CCO)ccc1-2 | -13.5 | 2.91 µM [falling, partial curve, poor fit] | – |
| O=C(c1cccc(S(=O)(=O)Nc2cccc(C(F)(F)F)c2)c1)N1CCOCC1 | 29.8 | 18.4 µM [rising, single point] | 1.3 µM [rising, full curve, poor fit] |
| O=C(NCCO)/C(=C\c1ccc2c(c1)OCO2)NC(=O)c1ccc(Br)cc1 | 38.7 | 18.4 µM [rising, partial curve] | 20.6 µM [rising, single point] |
| Cc1cc(OCc2nnc(SCC(=O)O)n2-c2ccccc2)ccc1Cl | 5.25 | 16.4 µM [rising, partial curve] | – |
| C/C(Cl)=C/CSc1nn2c(=O)c3ccccc3nc2s1 | 70.4 | 6.51 µM [rising, single point] | 10.3 µM [rising, partial curve] |
| COc1ccc(C(=O)N/C(=C\c2ccccc2)C(=O)NC(CC(C)C)C(=O)O)cc1 (centres undefined) | – | 0.00461 µM [falling, full curve, poor fit] | – |
| Cc1nc2ccc(F)cc2cc1C(=O)NCc1ccco1 | 99.1 | 4.61 µM [rising, partial curve, poor fit] | 16.4 µM [rising, partial curve] |
| COc1ccc(NC(=O)CSCC(=O)N(C)Cc2ccc(Cl)c(Cl)c2)cc1 | 12.1 | 0.00461 µM [rising, full curve, poor fit] | – |
| O=C(N/C(=C/c1ccc(F)cc1)C(=O)N1CCCCC1)c1ccco1 | – | 25.9 µM [rising, single point] | – |
| Cc1cnc(NC(=O)c2cc3c(s2)CCCC3)s1 | 10.7 | 7.31 µM [rising, partial curve] | 6.51 µM [rising, single point] |
| Nc1nnc(Cc2cccc(Br)c2)s1 | 10.8 | – | – |
| COc1ccc(/C=N/NC(=O)c2[nH]ncc2Br)c(OC)c1 | 39.4 | – | 13 µM [rising, single point] |
| Cc1ccsc1C(=O)NC(C)c1ccccc1 (centres undefined) | 17.6 | 1.46 µM [rising, partial curve] | – |
| COc1ccccc1NC(=O)CSc1ncn[nH]1 | 11.5 | 3.26 µM [rising, full curve, poor fit] | – |
| CCS(=O)(=O)C(=C(Nc1ccc(OC)cc1)Nc1ccc(OC)cc1)S(=O)(=O)CC | -7.66 | 0.00411 µM [falling, full curve, poor fit] | – |
| CC/C(=N\Nc1nncc2ccccc12)c1ccc(F)cc1 | -4.17 | 1.16 µM [rising, single point] | – |
| Cc1ccc(NC(=O)Cn2nnc(C(=O)Nc3ccc(C)c(C)c3)c2N)cc1 | – | 2.31 µM [rising, partial curve] | 2.59 µM [rising, partial curve] |
| CCc1ccc(OCCCOc2ccc(C=O)cc2)cc1 | 25.6 | – | – |

| SMILES | cell number change [%] | AC50 [1] | AC50 [2] |
| --- | --- | --- | --- |
| Cc1ccc(-n2nc3c(N4CCC(C(=O)NCc5ccc(C)o5)CC4)nnc(C)c3c2C)cc1 | 1.81 | – | – |
| Fc1c(F)c(C(F)(F)F)c(F)c(F)c1N/N=C\c1cccs1 | -59 | – | 16.4 µM [falling, single point] |
| Cc1cccc(OCC(=O)O/N=C(\N)c2ccc(Cl)cc2)c1 | -73.6 | 16.4 µM [falling, partial curve, poor fit] | 13 µM [falling, partial curve] |
| CCCCNC(=O)Nc1ccccc1CC | -13 | 0.103 µM [falling, single point] | – |
| CCOC(=O)C1=C(C)S/C(=C\N(C)C)C1=O | -9.39 | 0.461 µM [falling, single point] | – |
| Cc1cc(C)cc(NC(=O)C(OC(=O)Cn2cnc3c2c(=O)n(C)c(=O)n3C)c2ccccc2)c1 (centres undefined) | -6.94 | 6.51 µM [rising, single point] | – |
| CC(=O)Nc1ccc(S(=O)(=O)N2CCN=C2SCc2ccccc2C)cc1 | -16.1 | – | – |
| CN(CC(=O)Nc1cccc(F)c1)C(=O)c1cc(-c2ccco2)nc2ccccc12 | 43.3 | 3.26 µM [rising, partial curve, poor fit] | 2.06 µM [rising, full curve] |
| CC1(C)Cc2ccccc2-c2nnnn21 | -20.5 | 1.3 µM [falling, partial curve] | – |
| O=C(COc1ccccc1Cl)NCc1ccco1 | 43.8 | – | – |
| Brc1ccc(C2CC(c3ccccc3)=Nc3ccccc3N2)cc1 (centres undefined) | 35.5 | 16.4 µM [rising, partial curve] | 9.2 µM [rising, partial curve] |
| COc1ccc(NC(=O)COC(=O)CNS(=O)(=O)c2ccc(C)cc2)c(OC)c1 | -10.6 | 0.651 µM [falling, partial curve] | – |
| Cc1ccc(S(=O)(=O)N2C(=O)CCC2C(=O)Nn2cnnc2)cc1 (centres undefined) | -0.147 | 0.461 µM [falling, single point] | – |
| O=C(CNC(=O)Cc1ccccc1)NCC(=O)OCc1ccc(C(=O)c2ccccc2)cc1 | -10.1 | 0.731 µM [falling, full curve] | – |
| C=CCOc1ccc(C2/C(=C(/O)c3ccc4c(c3)CC(C)O4)C(=O)C(=O)N2CCCN2CCOCC2)cc1 (centres undefined) | – | – | 0.366 µM [falling, full curve, poor fit] |
| CC(C)(C)C1CCc2onc(C(=O)NCc3ccc(F)cc3)c2C1 (centres undefined) | -5.73 | 0.651 µM [falling, single point] | – |
| CC12CCC(=O)N1C(C(=O)NNC(=O)COc1cccc(C(F)(F)F)c1)CS2 (centres undefined) | – | 0.651 µM [falling, single point] | – |
| c1coc(-c2nc3nc4ccccc4nc3n2CC2CCCO2)c1 (centres undefined) | 104 | 23.1 µM [rising, single point] | 8.2 µM [rising, partial curve] |
| COc1ccc(NC(=S)N2CCN(c3ccc([N+](=O)[O-])cc3)CC2)cc1OC | -8.54 | 0.58 µM [falling, full curve] | – |
| CCCNC(=O)C1CCN(c2cc(-c3ccccc3)nc3ncnn23)CC1 | -23.8 | 20.6 µM [falling, single point] | – |

| SMILES | cell number change [%] | AC50 [1] | AC50 [2] |
| --- | --- | --- | --- |
| COc1cccc(N2CCN(c3ccc4nnc(CCC(=O)N5CCN(C)CC5)n4n3)CC2)c1 | -62 | – | 20.6 µM [falling, single point] |
| CCOC(=O)c1nn(-c2cccc(C)c2)c2nc(-c3ccccc3)c(C#N)c(=O)n12 | 46.5 | 0.731 µM [rising, partial curve] | 2.06 µM [rising, partial curve] |
| N#C/C(=C/c1ccc(OCc2ccccc2)cc1)C(=O)NC1CCCCC1 | -62.7 | 0.461 µM [falling, full curve] | 5.8 µM [falling, full curve, poor fit] |
| O=C(/C=C/c1ccc(NC(=O)c2ccccc2-c2ccccc2C(=O)O)cc1)c1ccccc1 | -18 | 0.58 µM [falling, single point] | – |
| CN1C=CC2=C(C#N)C(N)C(C#N)(C#N)C(c3ccccc3)C2C1 (centres undefined) | 81.5 | 8.2 µM [rising, partial curve] | 8.2 µM [rising, partial curve] |
| CN(C(=O)/C=C/c1cnc2ccccc2c1)C1CCCCC1 | 9.45 | 6.51 µM [rising, single point] | – |
| COc1cc(/C=N/O)cc(Br)c1OC | -4.87 | – | – |
| COC(=O)Cc1c(C)c2c(O)cc(C)cc2oc1=O | 2.23 | 1.16 µM [falling, full curve] | – |
| COc1ccc(/C=N/NC(=O)c2cc(-c3ccc(C)cc3C)nc3ccccc23)cc1COC(C)=O | 6.35 | 29.1 µM [rising, single point] | – |
| Cc1nnc(NC(=O)c2ccccc2F)s1 | -28.3 | 25.9 µM [falling, single point] | 4.11 µM [falling, full curve, poor fit] |
| CC1=C(C(=O)OCC2CCCO2)C(c2ccc(C)cc2)C2=C(CCCC2=O)N1 (centres undefined) | 9.38 | 0.206 µM [rising, full curve, poor fit] | – |
| CNC(=O)c1cc(S(=O)(=O)Nc2ccc3c(c2)OCCO3)ccc1C | -8.47 | – | – |
| CCCN(C(=O)C(C)Oc1cccc(Cl)c1)c1c(N)n(Cc2ccccc2)c(=O)[nH]c1=O (centres undefined) | 21.6 | 0.651 µM [rising, single point] | – |
| Cc1csc(NC(=O)c2cc(C)on2)n1 | 32.8 | – | – |
| Cc1ccc(C(=O)NNC(=O)c2ccc(NC(=O)C(C)(C)C)cc2)cc1 | 20.7 | – | 0.058 µM [rising, full curve, poor fit] |
| O=C(CSc1nnc(CNC(=O)c2ccccc2F)o1)c1ccccc1 | – | 4.61 µM [rising, partial curve] | – |
| Cc1ccccc1NC(=O)c1cn(-c2ccccc2)nc1-c1ccccc1 | 6.67 | 1.03 µM [rising, full curve, poor fit] | – |
| O=C(c1ccco1)N1CCN(C(=O)c2[nH]ncc2[N+](=O)[O-])CC1 | -4.15 | 0.651 µM [rising, full curve, poor fit] | – |
| O=C(COc1ccc(NC(=O)c2ccccc2[N+](=O)[O-])cc1)c1ccc(F)cc1 | 63.7 | – | 1.46 µM [rising, single point] |
| CCc1ccc(C(=O)CCC(=O)Nc2cccc(S(=O)(=O)N3CCCCC3)c2)cc1 | 75.2 | 25.9 µM [rising, single point] | 16.4 µM [rising, single point] |

Shown field by field: entries from further up.
O=C(CNC(=O)Cc1ccccc1)NCC(=O)OCc1ccc(C(=O)c2ccccc2)cc1
  cell number change [%]: -10.1; AC50 [1]: 0.731 µM [falling, full curve]
C=CCOc1ccc(C2/C(=C(/O)c3ccc4c(c3)CC(C)O4)C(=O)C(=O)N2CCCN2CCOCC2)cc1 (centres undefined)
  AC50 [2]: 0.366 µM [falling, full curve, poor fit]
CC(C)(C)C1CCc2onc(C(=O)NCc3ccc(F)cc3)c2C1 (centres undefined)
  cell number change [%]: -5.73; AC50 [1]: 0.651 µM [falling, single point]

Reference: PubChem BioAssay AID2685 (National Center for Advancing Translational Sciences (NCATS), 2010)
